Experimental data from the supplement of paper PMC10849652.
The other results are listed elsewhere or left out.

Sequences of proteins named here, by UniProt entry; tags and fusion partners are left off. A change or cut given only in a name is not applied to a line headed by its entry.
UniProt Q99758: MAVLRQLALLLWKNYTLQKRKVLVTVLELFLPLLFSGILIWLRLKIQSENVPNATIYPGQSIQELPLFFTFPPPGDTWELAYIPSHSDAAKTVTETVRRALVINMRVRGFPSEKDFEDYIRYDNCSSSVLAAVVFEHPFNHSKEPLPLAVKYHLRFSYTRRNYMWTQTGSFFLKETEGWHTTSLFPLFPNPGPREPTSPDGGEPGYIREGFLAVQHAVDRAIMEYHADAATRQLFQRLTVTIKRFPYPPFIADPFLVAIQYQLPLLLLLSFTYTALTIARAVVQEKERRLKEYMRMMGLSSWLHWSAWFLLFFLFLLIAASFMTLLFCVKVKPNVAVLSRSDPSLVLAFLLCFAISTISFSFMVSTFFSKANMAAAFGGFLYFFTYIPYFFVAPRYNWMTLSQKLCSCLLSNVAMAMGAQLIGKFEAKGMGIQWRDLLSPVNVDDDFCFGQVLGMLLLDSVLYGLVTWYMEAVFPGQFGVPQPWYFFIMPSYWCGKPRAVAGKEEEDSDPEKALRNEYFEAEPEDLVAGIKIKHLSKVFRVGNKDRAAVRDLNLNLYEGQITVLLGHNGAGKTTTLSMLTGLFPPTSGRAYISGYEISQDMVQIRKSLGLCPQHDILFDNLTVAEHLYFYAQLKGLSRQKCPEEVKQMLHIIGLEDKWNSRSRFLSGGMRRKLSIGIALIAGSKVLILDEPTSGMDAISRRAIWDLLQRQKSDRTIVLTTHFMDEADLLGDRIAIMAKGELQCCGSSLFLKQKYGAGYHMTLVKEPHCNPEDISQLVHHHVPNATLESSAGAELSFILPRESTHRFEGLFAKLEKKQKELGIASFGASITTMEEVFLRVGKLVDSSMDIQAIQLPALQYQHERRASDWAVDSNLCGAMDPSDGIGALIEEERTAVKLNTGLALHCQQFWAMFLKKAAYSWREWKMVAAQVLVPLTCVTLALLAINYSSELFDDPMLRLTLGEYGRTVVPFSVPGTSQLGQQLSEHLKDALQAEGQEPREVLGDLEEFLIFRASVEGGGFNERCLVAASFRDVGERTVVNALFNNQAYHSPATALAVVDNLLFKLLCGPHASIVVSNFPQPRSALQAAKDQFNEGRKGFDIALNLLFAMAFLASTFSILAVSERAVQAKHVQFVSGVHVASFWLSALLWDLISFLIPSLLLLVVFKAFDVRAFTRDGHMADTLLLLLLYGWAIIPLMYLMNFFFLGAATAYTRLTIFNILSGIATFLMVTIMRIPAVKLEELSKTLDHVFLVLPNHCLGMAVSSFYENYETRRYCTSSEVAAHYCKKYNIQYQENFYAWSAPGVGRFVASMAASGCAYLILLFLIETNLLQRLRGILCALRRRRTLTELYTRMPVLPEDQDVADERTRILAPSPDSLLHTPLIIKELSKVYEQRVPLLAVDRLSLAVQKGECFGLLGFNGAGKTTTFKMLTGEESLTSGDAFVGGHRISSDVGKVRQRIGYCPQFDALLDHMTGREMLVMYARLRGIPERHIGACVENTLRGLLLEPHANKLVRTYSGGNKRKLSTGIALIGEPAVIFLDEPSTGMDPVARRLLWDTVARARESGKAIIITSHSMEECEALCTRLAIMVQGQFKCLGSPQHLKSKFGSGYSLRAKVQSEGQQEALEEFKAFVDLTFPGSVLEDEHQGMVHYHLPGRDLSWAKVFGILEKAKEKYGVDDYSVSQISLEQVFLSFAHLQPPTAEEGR
UniProt Q53FZ2: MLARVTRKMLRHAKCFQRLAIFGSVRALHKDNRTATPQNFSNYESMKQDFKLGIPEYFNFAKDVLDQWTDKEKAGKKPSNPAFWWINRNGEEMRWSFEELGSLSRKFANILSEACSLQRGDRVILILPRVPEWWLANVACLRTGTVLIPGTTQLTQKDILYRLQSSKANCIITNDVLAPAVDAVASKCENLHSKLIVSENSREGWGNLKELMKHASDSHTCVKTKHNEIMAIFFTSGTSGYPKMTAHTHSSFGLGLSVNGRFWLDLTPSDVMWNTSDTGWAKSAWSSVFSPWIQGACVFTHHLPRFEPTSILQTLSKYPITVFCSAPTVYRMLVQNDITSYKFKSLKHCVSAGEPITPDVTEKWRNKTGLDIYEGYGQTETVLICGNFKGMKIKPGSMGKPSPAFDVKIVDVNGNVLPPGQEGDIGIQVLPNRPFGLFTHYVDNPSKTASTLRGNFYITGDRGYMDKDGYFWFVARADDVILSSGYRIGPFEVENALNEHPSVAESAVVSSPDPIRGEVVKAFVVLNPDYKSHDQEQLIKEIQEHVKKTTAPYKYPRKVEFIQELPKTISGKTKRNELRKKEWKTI
UniProt Q9BZC7: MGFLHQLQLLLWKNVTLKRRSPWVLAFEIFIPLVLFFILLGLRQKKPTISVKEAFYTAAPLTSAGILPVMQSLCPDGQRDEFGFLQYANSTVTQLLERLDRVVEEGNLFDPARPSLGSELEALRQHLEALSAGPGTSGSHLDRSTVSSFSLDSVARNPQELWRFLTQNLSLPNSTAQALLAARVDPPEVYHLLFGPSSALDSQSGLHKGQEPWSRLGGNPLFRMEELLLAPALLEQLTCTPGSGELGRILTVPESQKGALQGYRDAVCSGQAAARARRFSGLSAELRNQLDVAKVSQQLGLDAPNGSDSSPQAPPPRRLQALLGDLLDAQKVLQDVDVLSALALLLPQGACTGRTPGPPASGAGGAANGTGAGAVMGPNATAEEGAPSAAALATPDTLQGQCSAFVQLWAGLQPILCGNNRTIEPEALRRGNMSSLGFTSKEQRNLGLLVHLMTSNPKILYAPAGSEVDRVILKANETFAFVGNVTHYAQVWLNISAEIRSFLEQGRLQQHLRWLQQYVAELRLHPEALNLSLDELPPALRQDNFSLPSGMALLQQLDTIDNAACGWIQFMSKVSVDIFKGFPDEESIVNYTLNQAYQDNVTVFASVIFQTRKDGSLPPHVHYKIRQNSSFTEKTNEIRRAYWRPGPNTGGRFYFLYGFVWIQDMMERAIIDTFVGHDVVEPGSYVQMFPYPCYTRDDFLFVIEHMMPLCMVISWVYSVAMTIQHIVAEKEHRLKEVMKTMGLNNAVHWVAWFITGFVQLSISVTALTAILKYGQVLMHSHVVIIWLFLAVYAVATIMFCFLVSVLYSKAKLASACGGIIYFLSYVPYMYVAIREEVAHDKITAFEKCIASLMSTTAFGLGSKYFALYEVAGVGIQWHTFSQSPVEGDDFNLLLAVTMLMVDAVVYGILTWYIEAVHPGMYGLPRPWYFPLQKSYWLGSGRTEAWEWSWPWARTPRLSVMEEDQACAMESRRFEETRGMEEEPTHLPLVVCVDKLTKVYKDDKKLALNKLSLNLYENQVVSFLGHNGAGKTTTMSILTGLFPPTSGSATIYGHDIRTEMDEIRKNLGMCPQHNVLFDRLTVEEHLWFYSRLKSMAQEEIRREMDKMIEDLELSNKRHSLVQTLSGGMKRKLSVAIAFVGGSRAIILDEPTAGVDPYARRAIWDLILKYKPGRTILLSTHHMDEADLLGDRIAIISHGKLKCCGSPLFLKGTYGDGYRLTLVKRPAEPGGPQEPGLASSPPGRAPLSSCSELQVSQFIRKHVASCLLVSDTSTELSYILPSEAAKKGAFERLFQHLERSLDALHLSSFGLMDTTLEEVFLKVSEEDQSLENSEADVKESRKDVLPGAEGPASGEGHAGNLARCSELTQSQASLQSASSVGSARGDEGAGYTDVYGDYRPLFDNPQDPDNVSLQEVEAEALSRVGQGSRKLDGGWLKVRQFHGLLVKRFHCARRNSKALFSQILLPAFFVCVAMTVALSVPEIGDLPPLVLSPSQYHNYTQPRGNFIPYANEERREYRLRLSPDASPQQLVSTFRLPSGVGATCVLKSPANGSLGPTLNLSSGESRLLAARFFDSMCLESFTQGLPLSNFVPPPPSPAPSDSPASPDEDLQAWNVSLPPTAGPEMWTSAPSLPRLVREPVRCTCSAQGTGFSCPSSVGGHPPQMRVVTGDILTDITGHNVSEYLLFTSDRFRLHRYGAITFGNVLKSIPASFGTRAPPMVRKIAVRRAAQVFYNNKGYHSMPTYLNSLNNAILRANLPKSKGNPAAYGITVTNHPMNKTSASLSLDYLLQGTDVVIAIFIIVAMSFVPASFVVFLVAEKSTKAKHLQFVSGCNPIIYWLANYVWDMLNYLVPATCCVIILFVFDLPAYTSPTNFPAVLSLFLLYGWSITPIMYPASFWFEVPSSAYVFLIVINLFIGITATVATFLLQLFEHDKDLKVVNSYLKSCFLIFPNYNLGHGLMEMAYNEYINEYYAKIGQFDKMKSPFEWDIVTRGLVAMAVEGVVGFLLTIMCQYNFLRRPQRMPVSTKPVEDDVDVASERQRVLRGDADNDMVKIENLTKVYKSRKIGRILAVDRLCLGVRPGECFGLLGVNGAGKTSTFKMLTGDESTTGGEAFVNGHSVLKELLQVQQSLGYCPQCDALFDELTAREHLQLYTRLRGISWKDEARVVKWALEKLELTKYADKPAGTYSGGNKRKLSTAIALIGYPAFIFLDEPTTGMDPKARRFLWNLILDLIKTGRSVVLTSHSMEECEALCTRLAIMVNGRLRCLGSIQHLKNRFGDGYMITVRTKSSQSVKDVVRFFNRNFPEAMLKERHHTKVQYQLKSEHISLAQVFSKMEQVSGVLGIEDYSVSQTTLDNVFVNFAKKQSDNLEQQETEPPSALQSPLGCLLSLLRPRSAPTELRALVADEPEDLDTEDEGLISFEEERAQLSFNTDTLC
UniProt P14621: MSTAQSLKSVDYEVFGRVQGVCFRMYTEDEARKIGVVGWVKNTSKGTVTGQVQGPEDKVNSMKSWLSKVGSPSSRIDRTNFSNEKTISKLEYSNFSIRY
UniProt Q9NUB1: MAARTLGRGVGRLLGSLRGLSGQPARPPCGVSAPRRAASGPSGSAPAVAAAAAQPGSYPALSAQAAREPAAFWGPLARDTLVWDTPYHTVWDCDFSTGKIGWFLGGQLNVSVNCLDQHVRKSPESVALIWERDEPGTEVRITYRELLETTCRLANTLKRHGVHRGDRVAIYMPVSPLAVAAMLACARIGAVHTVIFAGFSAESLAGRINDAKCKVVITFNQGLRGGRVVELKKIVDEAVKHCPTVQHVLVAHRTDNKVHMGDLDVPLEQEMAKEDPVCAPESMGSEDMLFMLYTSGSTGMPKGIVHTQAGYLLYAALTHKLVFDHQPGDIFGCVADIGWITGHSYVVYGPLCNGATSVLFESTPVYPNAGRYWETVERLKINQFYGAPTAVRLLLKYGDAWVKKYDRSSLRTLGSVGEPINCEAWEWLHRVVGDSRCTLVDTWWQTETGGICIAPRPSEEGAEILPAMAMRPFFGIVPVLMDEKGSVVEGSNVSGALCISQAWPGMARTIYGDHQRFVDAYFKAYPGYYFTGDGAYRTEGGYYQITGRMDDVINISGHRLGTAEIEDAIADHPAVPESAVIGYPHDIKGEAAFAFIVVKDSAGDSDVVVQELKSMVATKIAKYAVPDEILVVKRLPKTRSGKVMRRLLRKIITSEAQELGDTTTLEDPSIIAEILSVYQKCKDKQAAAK
UniProt Q5JTZ9, whole entry, looked up: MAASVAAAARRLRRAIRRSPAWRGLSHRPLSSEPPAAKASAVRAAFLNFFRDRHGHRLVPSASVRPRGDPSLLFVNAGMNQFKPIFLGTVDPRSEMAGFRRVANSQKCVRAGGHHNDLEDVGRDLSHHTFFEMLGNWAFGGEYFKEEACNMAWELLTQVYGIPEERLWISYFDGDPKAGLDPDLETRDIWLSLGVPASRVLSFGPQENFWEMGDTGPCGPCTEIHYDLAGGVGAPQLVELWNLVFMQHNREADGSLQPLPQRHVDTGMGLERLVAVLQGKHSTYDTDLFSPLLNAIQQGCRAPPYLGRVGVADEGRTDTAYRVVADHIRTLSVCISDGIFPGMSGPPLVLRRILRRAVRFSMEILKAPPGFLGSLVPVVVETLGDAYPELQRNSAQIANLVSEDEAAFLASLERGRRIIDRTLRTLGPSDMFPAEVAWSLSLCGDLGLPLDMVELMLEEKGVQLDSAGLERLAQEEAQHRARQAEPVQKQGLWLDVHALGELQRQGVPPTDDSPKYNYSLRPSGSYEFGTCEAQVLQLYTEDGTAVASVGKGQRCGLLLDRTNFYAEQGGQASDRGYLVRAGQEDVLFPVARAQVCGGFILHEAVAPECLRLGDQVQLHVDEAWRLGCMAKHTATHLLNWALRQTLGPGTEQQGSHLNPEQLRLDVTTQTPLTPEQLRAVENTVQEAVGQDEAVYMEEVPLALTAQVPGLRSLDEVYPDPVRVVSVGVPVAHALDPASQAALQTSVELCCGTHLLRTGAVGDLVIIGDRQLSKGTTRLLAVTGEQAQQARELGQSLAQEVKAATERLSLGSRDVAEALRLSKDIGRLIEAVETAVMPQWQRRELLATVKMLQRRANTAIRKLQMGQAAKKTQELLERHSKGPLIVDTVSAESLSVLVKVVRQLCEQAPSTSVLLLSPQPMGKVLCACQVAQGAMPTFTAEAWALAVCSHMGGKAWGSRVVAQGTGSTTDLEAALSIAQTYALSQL

Experiments:
Assay in all cases: log2 fold change, soluble protein after heating vs DMSO (PISA); higher = thermal stabilisation; K562 cells, 10 uM, 30 min; active = over 0.2 and 3.5 SD of the protein, either way, in both replicates (recomputed)
[1] = compound: CS(=O)(=O)c1ccc(-c2cnc(N)c(C(=O)Nc3ccccc3)n2)cc1
Outline: (§1)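 Quantification of soluble protein used TMTpro 16plex LC-MS/MS, with channel sums equalised. Samples were the supernatant after 21,000xg for 90 min of pooled aliquots from K562 cells (2×10^6 cells/mL) treated with 10 μM compound for 30 min, heated for 3 min over 48°C-58°C, and extracted in PBS with 0.5% NP-40 at 4°C. Values, from duplicates, describe thermal stability against control samples on a log2 fold-change scale.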

crizotinib = compound: C[C@@H](Oc1cc(-c2cnn(C3CCNCC3)c2)cnc1N)c1c(Cl)ccc(F)c1Cl [crizotinib]
Outline: as §1

[2] = compound: C[C@@H]1COCCN1C2=NC(=NC(=C2)C3(CC3)S(=O)(=O)C)C4=C5C=CNC5=CC=C4
Outline: as §1

[3] = compound: C[C@H](C1=CC=C(C=C1)C(=O)NC2=C3C=CNC3=NC=C2)N
Outline: as §1

gandotinib = compound: Cc1cc(Nc2cc(CN3CCOCC3)c3nc(C)c(Cc4ccc(Cl)cc4F)n3n2)n[nH]1 [gandotinib]
Outline: as §1

[4] = compound: Cc1cc(SCc2sc(-c3ccc(C(F)(F)F)cc3)nc2C)ccc1OCC(=O)O
Outline: as §1

doramapimod = compound: Cc1ccc(-n2nc(C(C)(C)C)cc2NC(=O)Nc2ccc(OCCN3CCOCC3)c3ccccc23)cc1 [doramapimod]
Outline: as §1

ispinesib = compound: Cc1ccc(C(=O)N(CCCN)[C@@H](c2nc3cc(Cl)ccc3c(=O)n2Cc2ccccc2)C(C)C)cc1 [ispinesib]
Outline: as §1

bafetinib = compound: Cc1ccc(NC(=O)c2ccc(CN3CC[C@H](N(C)C)C3)c(C(F)(F)F)c2)cc1Nc1nccc(-c2cncnc2)n1 [bafetinib]
Outline: as §1

[5] = compound: Cc1cccc(CC(=O)N2CCc3c2ccc(-c2cn(C)c4ncnc(N)c24)c3F)n1
Outline: as §1

dasatinib = compound: Cc1nc(Nc2ncc(C(=O)Nc3c(C)cccc3Cl)s2)cc(N2CCN(CCO)CC2)n1 [dasatinib]
Outline: as §1

[6] = compound: Cn1cc(-c2ccc3c(c2)CCN3C(=O)Cc2cccc(C(F)(F)F)c2)c2c(N)ncnc21
Outline: as §1

[7] = compound: Cn1cc(-c2ccc3nnc(C(F)(F)c4ccc5ncccc5c4)n3n2)cn1
Outline: as §1

tipifarnib = compound: Cn1cncc1[C@@](N)(c1ccc(Cl)cc1)c1ccc2c(c1)c(-c1cccc(Cl)c1)cc(=O)n2C [tipifarnib]
Outline: as §1

nilotinib = compound: Cc1cn(-c2cc(NC(=O)c3ccc(C)c(Nc4nccc(-c5cccnc5)n4)c3)cc(C(F)(F)F)c2)cn1 [nilotinib]
Outline: as §1

[8] = compound: Cc1nc(Nc2n[nH]c3c2CN(C(=O)N[C@H](CN(C)C)c2ccccc2)C3(C)C)c2sccc2n1
Outline: as §1

[9] = compound: Cc1ncc(-c2ccnc(Nc3ccc(S(C)(=O)=O)cc3)n2)n1C(C)C
Outline: as §1

mubritinib = compound: FC(F)(F)c1ccc(/C=C/c2nc(COc3ccc(CCCCn4ccnn4)cc3)co2)cc1 [mubritinib]
Outline: as §1

tozasertib = compound: Cc1cc(Nc2cc(N3CCN(C)CC3)nc(Sc3ccc(NC(=O)C4CC4)cc3)n2)n[nH]1 [tozasertib]
Outline: as §1

duvelisib = compound: C[C@H](Nc1ncnc2nc[nH]c12)c1cc2cccc(Cl)c2c(=O)n1-c1ccccc1 [duvelisib]
Outline: as §1

Measured: log2 fold change

ABCA3 (UniProt Q99758)
active: crizotinib -0.361 | ispinesib -0.502
inactive: [1] 0.111 | [2] 0.174 | [3] 0.073 | gandotinib 0.036 | [4] 0.014 | doramapimod 0.031 | bafetinib 0.164 | [5] -0.053 | dasatinib -0.027 | [6] -0.022 | [7] 0.019 | tipifarnib 0.058

ACADM isoform 2 (UniProt P11310)
inactive: [1] 0.075 | crizotinib 0.022 | [2] 0.018 | [3] -0.073 | gandotinib 0.049 | [4] -0.01 | doramapimod -0.059 | ispinesib 0.052 | bafetinib -0.073 | [5] 0.002 | nilotinib -0.013 | [8] 0.025 | dasatinib -0.054 | [9] -0.002 | [6] 0.039 | [7] 0.024 | tipifarnib 0.012 | mubritinib 0.016

ACSM3 (UniProt Q53FZ2)
active: mubritinib -0.343
inactive: [1] -0.001 | crizotinib -0.002 | [2] 0.027 | [3] -0.095 | gandotinib -0.037 | [4] 0.049 | doramapimod 0.023 | ispinesib 0.226 | bafetinib 0.009 | [5] -0.061 | nilotinib -0.015 | [8] 0.002 | dasatinib -0.185 | [9] 0.028 | [6] 0.012 | [7] 0.128 | tipifarnib 0.002

2 entries picked at random from those above, as already listed:
ABCA3 (UniProt Q99758)
active: crizotinib -0.361 | ispinesib -0.502
inactive: [1] 0.111 | [2] 0.174 | [3] 0.073 | gandotinib 0.036 | [4] 0.014 | doramapimod 0.031 | bafetinib 0.164 | [5] -0.053 | dasatinib -0.027 | [6] -0.022 | [7] 0.019 | tipifarnib 0.058

ACSM3 (UniProt Q53FZ2)
active: mubritinib -0.343
inactive: [1] -0.001 | crizotinib -0.002 | [2] 0.027 | [3] -0.095 | gandotinib -0.037 | [4] 0.049 | doramapimod 0.023 | ispinesib 0.226 | bafetinib 0.009 | [5] -0.061 | nilotinib -0.015 | [8] 0.002 | dasatinib -0.185 | [9] 0.028 | [6] 0.012 | [7] 0.128 | tipifarnib 0.002

Next records.

ABCD4 (UniProt O14678)
inactive: [1] 0.1 | crizotinib -0.015 | [2] -0.13 | [3] -0.09 | tozasertib 0.067 | doramapimod 0.134 | ispinesib -0.127 | bafetinib -0.08 | nilotinib 0.041 | [8] 0.1 | [9] 0.145 | [6] -0.061 | [7] 0.051 | tipifarnib -0.072 | mubritinib 0.044

ACP2 (UniProt P11117)
inactive: [1] 0.06 | crizotinib -0.051 | [2] 0.017 | [3] -0.016 | gandotinib -0.071 | [4] -0.031 | doramapimod 0.016 | ispinesib -0.036 | bafetinib -0.107 | [5] -0.06 | nilotinib 0.002 | [8] -0.006 | dasatinib 0 | [9] 0.02 | [6] 0.015 | [7] 0.03 | tipifarnib 0.061 | mubritinib -0.008

AAR2 (UniProt Q9Y312)
inactive: [1] -0.06 | crizotinib -0.081 | [2] 0.019 | [3] 0.054 | gandotinib -0.29 | [4] 0.021 | doramapimod -0.038 | ispinesib 0.085 | bafetinib -0.019 | [5] -0.062 | nilotinib 0.058 | [8] 0.009 | dasatinib -0.006 | [9] 0.019 | [6] -0.079 | [7] -0.034 | tipifarnib 0.004 | mubritinib -0.036

AARSD1 isoform 3 (UniProt Q9BTE6)
inactive: [1] 0.062 | crizotinib 0.054 | [2] 0.012 | [3] 0.013 | gandotinib -0.081 | [4] 0.038 | doramapimod -0.05 | ispinesib 0.067 | bafetinib 0.009 | [5] 0.065 | nilotinib -0.013 | [8] -0.038 | dasatinib -0.062 | [9] 0.031 | [6] -0.004 | [7] 0.002 | tipifarnib 0.022 | mubritinib 0.064

ACIN1 (UniProt Q9UKV3)
inactive: [1] -0.011 | crizotinib -0.014 | [2] 0.068 | [3] -0.12 | gandotinib 0.01 | [4] 0.002 | doramapimod 0.029 | ispinesib 0.007 | bafetinib 0.022 | [5] -0.037 | nilotinib 0.086 | dasatinib 0.016 | [9] -0.065 | [6] 0.117 | [7] -0.027 | tipifarnib 0.026 | mubritinib 0.049
active: [8] -0.444

ACO2 (UniProt Q99798)
active: mubritinib -0.522
inactive: [1] 0 | crizotinib -0.022 | [2] 0.102 | [3] -0.085 | gandotinib -0.088 | [4] 0.078 | doramapimod -0.026 | ispinesib 0.041 | bafetinib 0.021 | [5] -0.025 | nilotinib -0.02 | [8] 0.013 | dasatinib -0.118 | [9] -0.013 | [6] 0.043 | [7] -0.016 | tipifarnib -0.064

AAK1, A0A096LP25
inactive: [1] 0.138 | crizotinib 0.124 | [2] 0.012 | [3] 0.365 | gandotinib 0.103 | [4] -0.048 | doramapimod -0.013 | ispinesib 0.011 | bafetinib -0.058 | [5] -0.017 | nilotinib -0.084 | [8] 0.104 | dasatinib -0.18 | [9] 0.028 | [6] -0.05 | [7] -0.079 | mubritinib -0.124

ABL2 (UniProt P42684)
inactive: [1] 0.188 | crizotinib 0.183 | [2] 0.101 | tozasertib -0.022 | doramapimod 0.004 | ispinesib -0.288 | bafetinib -0.004 | [7] -0.08

ACSL1 (UniProt P33121)
active: ispinesib -0.246
inactive: [1] 0.012 | crizotinib -0.091 | [2] 0.017 | [3] -0.024 | gandotinib 0.008 | [4] 0 | doramapimod -0.003 | bafetinib -0.178 | [5] -0.004 | nilotinib -0.003 | [8] -0.07 | dasatinib -0.076 | [9] -0.013 | [6] 0.027 | [7] 0.024 | tipifarnib -0.015 | mubritinib -0.009

ABCA2 isoform 3 (UniProt Q9BZC7)
inactive: [1] 0.124 | crizotinib 0.086 | doramapimod 0.021 | ispinesib 0.059 | bafetinib -0.498 | [7] -0.083

ACYP2 (UniProt P14621)
inactive: [1] -0.064 | crizotinib 0.077 | [3] -0.209 | tozasertib -0.005 | doramapimod 0.071 | nilotinib 0.168 | [8] -0.02 | [9] -0.046 | [6] -0.226 | tipifarnib 0.007 | mubritinib 0.124

ACSS1 (UniProt Q9NUB1)
inactive: [1] 0.12 | crizotinib 0.294 | [3] -0.127 | duvelisib 0.184 | gandotinib 0.029 | tozasertib 0.025 | [4] 0.041 | doramapimod 0.117 | ispinesib -0.061 | bafetinib 0.025 | [5] -0.006 | nilotinib -0.054 | [8] 0.013 | dasatinib -0.012 | [9] -0.06 | [6] 0.004 | [7] 0.012 | tipifarnib 0.027 | mubritinib -0.078

ACACB (UniProt O00763)
inactive: [1] 0.078 | crizotinib -0.152 | [2] -0.13 | [3] 0.341 | gandotinib 0.041 | [4] 0.289 | doramapimod 0.168 | ispinesib -0.188 | bafetinib 0.145 | [5] -0.021 | nilotinib -0.109 | [8] -0.251 | dasatinib -0.03 | [9] -0.026 | [6] -0.09 | [7] -0.059 | tipifarnib -0.14 | mubritinib -0.147

ABHD13 (UniProt Q7L211)
inactive: [1] -0.185 | crizotinib 0.079 | [2] -0.039 | duvelisib -0.006 | gandotinib -0.232 | tozasertib 0.016 | [4] 0.092 | doramapimod -0.118 | ispinesib 0.18 | bafetinib -0.035 | [5] 0.014 | nilotinib -0.039 | [8] 0.07 | dasatinib -0.097 | [9] 0.101 | [7] -0.092 | tipifarnib -0.047 | mubritinib -0.038

ABCB6 (UniProt Q9NP58)
inactive: [1] 0.03 | [2] 0.093 | [3] -0.057 | gandotinib -0.031 | [4] -0.028 | doramapimod 0.049 | ispinesib -0.207 | bafetinib -0.035 | [5] 0.014 | nilotinib 0.022 | [8] 0.032 | dasatinib -0.001 | [9] 0.024 | [6] 0 | [7] -0.025 | tipifarnib 0.005 | mubritinib 0.001
active: crizotinib -0.457

AARS2 (UniProt Q5JTZ9)
inactive: [1] 0.017 | crizotinib -0.04 | [2] 0.138 | [3] -0.03 | gandotinib -0.058 | [4] 0.036 | doramapimod 0.026 | bafetinib -0.07 | [5] 0.011 | nilotinib -0.085 | [8] -0.047 | dasatinib -0.184 | [9] -0.036 | [6] 0.052 | [7] 0.05 | tipifarnib -0.063 | mubritinib -0.143
active: ispinesib -0.223
